Measurements as given in patent publication US8394991B2, “Phenoxy substituted phenylamidine derivatives and their use as fungicides” (Bayer Cropscience AG, priority 2007, dated 2013).
Some entries share one result that the patent states for a list of compounds.

Columns and labels:
Format in all cases: in vivo
Podosphaera leucotricha = experiment: Podosphaera test (apple) / protective; details: apple plants, protective spray, 100 ppm active compound, evaluation 10 days after inoculation
Sphaerotheca fuliginea = experiment: Sphaerotheca test (cucumber) / protective; details: cucumber plants, protective spray, 100 ppm active compound, evaluation 7 days after inoculation
Alternaria solani = experiment: Alternaria test (tomato) / protective; details: tomato plants, protective spray, 500 ppm active compound, evaluation 7 days after inoculation
Leptosphaeria nodorum = Leptosphaeria nodorum test (wheat) / protective; details: wheat plants, protective spray, 500 ppm active compound, evaluation 12-14 days after inoculation
Uromyces appendiculatus = experiment: Uromyces test (bean) / protective; details: bean plants, protective spray, 10 ppm active compound, evaluation 10 days after inoculation

| Compound | efficacy (Podosphaera leucotricha) [%] | efficacy (Sphaerotheca fuliginea) [%] | efficacy (Alternaria solani) [%] | efficacy (Leptosphaeria nodorum) [%] | efficacy (Uromyces appendiculatus) [%] |
| --- | --- | --- | --- | --- | --- |
| CCN(C)C=Nc1cc(C)c(Oc2cccc(C(C)(CC)OC)c2)cc1C (stereo not drawn) [Compound 8, N-ethyl-N′-{4-[3-(1-methoxy-1-methylpropyl)phenoxy]-2,5-dimethylphenyl}-N-methylimidoformamide] | ≥ 70 | ≥ 70 |  |  |  |
| CCN(C)C=Nc1cc(C)c(Oc2cccc(C(C)(C)OC)c2)cc1C [Compound 37, N-ethyl-N′-{4-[3-(1-methoxy-1-methylethyl)phenoxy]-2,5-dimethylphenyl}-N-methylimidoformamide] | ≥ 70 |  | ≥ 70 | ≥ 70 | ≥ 70 |
| CCN(C)C=Nc1cc(C)c(Oc2cccc(C(C)C)c2)cc1Cl [Compound 61-1, N′-[2-chloro-4-(3-isopropylphenoxy)-5-methylphenyl]-N-ethyl-N-methylimidoformamide] |  | ≥ 70 | ≥ 70 | ≥ 70 |  |
| Cc1cc(N=CN(C)C(C)C)c(Cl)cc1Oc1cccc(C(C)C)c1 [Compound 61-2, N′-[2-chloro-4-(3-isopropylphenoxy)-5-methylphenyl]-N-isopropyl-N-methylimidoformamide] |  | ≥ 70 |  |  |  |
| CCN(C)C=Nc1cc(C)c(Oc2cccc(CC(C)(C)C)c2)cc1C [Compound 62, N′-{4-[3-(2,2-dimethylpropyl)phenoxy]-2,5-dimethylphenyl}-N-ethyl-N-methylimidoformamide] | ≥ 70 |  | ≥ 70 |  | ≥ 70 |
| CCN(C)C=Nc1cc(C)c(Oc2cccc(C[Si](C)(C)C)c2)cc1C [Compound 63, N′-(2,5-dimethyl-4-{3-[(trimethylsilyl)methyl]-phenoxy}phenyl)-N-ethyl-N-methylimido-formamide] | ≥ 70 |  |  | ≥ 70 | ≥ 70 |
| CCN(C)C=Nc1cc(C(F)(F)F)c(Oc2cccc(C(C)C)c2)cc1C [Compound 66, N-ethyl-N′-[4-(3-isopropylphenoxy)-5-methyl-2-(trifluoromethyl)phenyl]-N-methylimidoformamide] |  |  | ≥ 70 | ≥ 70 |  |
